Experimental data from publication PMC9278747.
No constants are given. Whether binding was seen depends on the method and setting. Binding seen in cells or lysates may run through a third protein. Some results given as binding are weak or reduced against the parent protein; the word gives no strength.

Amino acid sequences for entries named in this document (tags omitted). A change or cut given only in a name is not applied to a line headed by its entry.
UniProt P33297: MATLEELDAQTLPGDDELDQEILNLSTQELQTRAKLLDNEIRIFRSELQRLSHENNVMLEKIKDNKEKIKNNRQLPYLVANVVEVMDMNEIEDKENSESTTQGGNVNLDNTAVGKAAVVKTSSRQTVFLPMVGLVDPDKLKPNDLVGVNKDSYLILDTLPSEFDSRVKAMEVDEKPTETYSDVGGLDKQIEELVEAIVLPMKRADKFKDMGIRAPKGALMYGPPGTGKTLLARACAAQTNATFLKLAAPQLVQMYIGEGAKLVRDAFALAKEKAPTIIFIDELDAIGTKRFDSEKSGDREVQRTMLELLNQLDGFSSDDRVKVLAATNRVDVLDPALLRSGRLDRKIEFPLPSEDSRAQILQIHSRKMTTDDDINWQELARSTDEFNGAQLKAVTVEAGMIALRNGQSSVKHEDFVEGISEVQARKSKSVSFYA

What follows are substances tested against OtUBD resin (Cys-OtUBD or Cys-His6-OtUBD covalently linked to SulfoLink resin) (Orientia tsutsugamushi) (UniProt B3CVM3) (assay: pull-down; only the target purified).

Row | Substance | binding
1 | likely monoubiquitylated Rpt5PA (additional slower-migrating Rpt5PA species) (from UniProt P33297 1-434; P0CG63 1-76) | binds
2 | ubiquitin (yeast, free) (from UniProt P0CG63 1-76) | binds
3 | ubiquitylated Rpt5PA (higher mass species, likely endogenous polyubiquitylated Rpt5PA) (from UniProt P33297 1-434; P0CG63 1-76) | binds
